# Library screening results

Sequences of proteins named here, by UniProt entry; tags and fusion partners are left off.
UniProt E9BF75, entry or part of it: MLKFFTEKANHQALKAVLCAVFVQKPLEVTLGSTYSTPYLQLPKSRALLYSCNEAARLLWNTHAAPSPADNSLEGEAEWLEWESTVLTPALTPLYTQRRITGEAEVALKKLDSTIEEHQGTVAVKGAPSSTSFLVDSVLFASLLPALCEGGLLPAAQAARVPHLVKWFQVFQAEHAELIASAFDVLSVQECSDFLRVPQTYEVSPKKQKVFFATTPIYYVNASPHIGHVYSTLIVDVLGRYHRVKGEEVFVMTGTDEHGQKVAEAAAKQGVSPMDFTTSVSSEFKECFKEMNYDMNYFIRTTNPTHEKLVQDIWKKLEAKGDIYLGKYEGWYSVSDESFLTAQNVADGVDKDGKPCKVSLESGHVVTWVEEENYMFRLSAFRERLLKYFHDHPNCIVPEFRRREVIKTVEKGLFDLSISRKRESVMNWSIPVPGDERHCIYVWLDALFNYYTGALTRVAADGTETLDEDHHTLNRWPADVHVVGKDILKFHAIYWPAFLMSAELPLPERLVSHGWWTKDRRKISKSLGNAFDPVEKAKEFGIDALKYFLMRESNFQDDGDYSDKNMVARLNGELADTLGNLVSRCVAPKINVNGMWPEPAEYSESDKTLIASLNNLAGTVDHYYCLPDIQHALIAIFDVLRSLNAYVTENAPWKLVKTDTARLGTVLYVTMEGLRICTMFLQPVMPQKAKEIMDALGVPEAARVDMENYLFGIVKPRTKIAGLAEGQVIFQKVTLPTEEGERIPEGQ

Source: ChEMBL document CHEMBL3988442, “University of Dundee, Small-Polar-MMV Screening Library” (2021).

A: 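Methionyl-tRNA synthetase (putative), Leishmania donovani (UniProt E9BF75). Primary screen of methionyl-tRNA synthetase; the read-out is not stated. The test concentration is not given. Values are per cent inhibition. Of about 68,000 compounds tested this way, about 24 (0.035%) reached 50% or more in at least one test.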
B: 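Assay on Mycobacterium tuberculosis, filed only as a heat shock assay from Cornell; the read-out is not stated. The concentration is filed as 10 mM, unlikely as a test dose, so the dose is not known. Higher reads as stronger inhibition (inferred: compounds with an IC50 in retests scored well above the rest). Size under these conditions: about 69,000 compounds, about 930 of them at 50% or above in at least one test.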

All values are in %. How 0% and 100% were set is not recorded. Most values in the screen are low, and negative values occur. This is an unselected part of the compounds tested. A dash means the value is not listed here; it may have been measured.

compound,A,B
O=C(NC[C@]12COC[C@H]1CN(CC1CCOCC1)C2)c1ccccc1,11.24%,-
Cc1nc(CN2CCc3ncnc(C4CC4)c3CC2)cs1.O=C(O)C(F)(F)F,-,-4.461%
CN1CCN(c2ncc(-c3cnccn3)c([C@H]3CCCO3)n2)CC1,5.178%,-0.6788%
O=C(O)C(F)(F)F.[H][C@]12C[C@@H](C(=O)NCCc3cccs3)CO[C@@]1([H])CCN(C1CCC1)C2,-,6.34%
Cc1cc(CN2CCN(C(C)C(=O)NCc3cccs3)CC2)no1 (stereo unspecified),11.98%,-36.26%
COCCn1ccnc1C1CCCN(c2cnccn2)C1 (stereo unspecified),9.045%,-6.994%
O=C(O)C(F)(F)F.O=C(O)C(F)(F)F.[H][C@@]12CN(CCOC)C[C@]1([H])[C@@H](OC)CCN2Cc1ccc(C)o1,-,-25.99%
COc1c(Br)c(C(=O)NC2CC2)nn1C,22.1%,4.654%
N#CCCN(Cc1ccccn1)C(=O)Nc1cccnc1,7.971%,2.334%
Cc1c(CN2CC[C@@H](N3CCC(O)CC3)[C@H](O)C2)[nH]c2ccc(F)cc12,3.226%,-3.585%
COc1ccnc(N2CCN(C(=O)Cc3ccsc3)CC2)n1,24.31%,0.9817%
O=C1CSC(c2ccc3c(c2)OCO3)c2cnn(C3CCCCC3)c2N1 (stereo unspecified),9.632%,-31.93%
Cc1noc(C(C)C)c1C(=O)NCC1CCN(c2ccccc2)C1 (stereo unspecified),1.003%,-4.476%
Cc1cnn(CC2CN(CC(=O)NCc3ccc(C)s3)CCO2)c1 (stereo unspecified),18.62%,-18.45%
O=C1CCCN1Cc1ccc(C(=O)N2CCCC2c2cccs2)cc1 (stereo unspecified),14.64%,15.06%
CN1CCN(Cc2cn3c(n2)CN(Cc2cccc(F)c2)CC3)CC1.O=C(O)C(F)(F)F.O=C(O)C(F)(F)F.O=C(O)C(F)(F)F,-,-2.625%
N#Cc1ccc(N2CCC3(CCC(=O)N3Cc3cccnc3)CC2)nc1,11.14%,-
Cc1ccc(NC(=O)N2CCN(C(=O)CC3CCCC3)CC2)s1,14.21%,9.082%
Cc1ccc(CN(Cc2c[nH]cn2)C2CC(C)(C)NC(C)(C)C2)o1.O=C(O)CC(O)(CC(=O)O)C(=O)O,-,7.533%
[H][C@@]12CS(=O)(=O)C[C@]1([H])N(Cc1nccn1C)CCN2CC=C(C)C,-,11.41%

Some entries from above, unchanged:

* Cc1noc(C(C)C)c1C(=O)NCC1CCN(c2ccccc2)C1 (stereo unspecified) | A: 1.003%; B: -4.476%
* Cc1nc(CN2CCc3ncnc(C4CC4)c3CC2)cs1.O=C(O)C(F)(F)F | B: -4.461%